Changes are numbered by the printed parent chain. No constants are given. Whether binding was seen depends on the method and setting. Some results given as binding are weak or reduced against the parent protein; the word gives no strength. Tags and fused reporters may be left off the sequences shown.
B1: #1 항체 (B7-H3 항체) (antibody, V domains shown)
VH: EVQLLESGGGLVQPGGSLRLSCAASGFTFSSYAMSWVRQAPGKGLEWVSTITGSGGSTYYADSVKGRFTISRDNSKNTLYLQMNSLRAEDTAVYYCARYKSGAFDIWGQGTLVTVSS
VL: EIVLTQSPGTLSLSPGERATLSCRASQGIGNYLGWYQQKPGQAPRLLIYTASSLQSGIPDRFSGSGSGTDFTLTISRLEPEDFAVYYCQQGYSTPSWTFGQGTKVEIK
B2: #2 항체 (B7-H3 항체) (antibody, V domains shown)
VH: EVQLLESGGGLVQPGGSLRLSCAASGFTFSAYYMIWVRQAPGKGLEWVSITNPSGGVTSYAQKFQGRFTISRDNSKNTLYLQMNSLRAEDTAVYYCARVGGRGFDIWGQGTLVTVSS
VL: EIVLTQSPGTLSLSPGERATLSCHASQGISNYVAWYQQKPGQAPRLLIYDASNRATGIPDRFSGSGSGTDFTLTISHLEPEDFAVYYCQQSYSTLLTFGQGTKVEIK
B3: #3 항체 (B7-H3 항체) (antibody, V domains shown)
VH: EVQLLESGGGLVQPGGSLRLSCAASGFTFSTYYMTWVRQAPGKGLEWVSIINPRGGSTSYAEKFQGRFTISRDNSKNTLYLQMNSLRAEDTAVYYCARWNLGMDVWGQGTLVTVSS
VL: EIVLTQSPGTLSLSPGERATLSCRVSQSISSYLNWYQQKPGQAPRLLIYDASHRATGIPDRFSGSGSGTDFTLTISRLEPEDFAVYYCQQYYAPSVTFGQGTKVEIK
B4: #4 항체 (B7-H3 항체) (antibody, V domains shown)
VH: EVQLLESGGGLVQPGGSLRLSCAASGFTFSSYGMHWVRQAPGKGLEWVSAISGSGTSIYYANSVKSRFTISRDNSKNTLYLQMNSLRAEDTAVYYCARGAGWFDYWGQGTLVTVSS
VL: QSVLTQPPSASGTPGQRVTISCSGSTSNIGSNTVNWYQQLPGTAPKLLIYGKNIRPNGVPDRFSGSKSGTSASLAISGLHSEDEADYYCQSYDSSLSGWVFGGGTKLTVL
B5: #5 항체 (B7-H3 항체) (antibody, V domains shown)
VH: EVQLLESGGGLVQPGGSLRLSCAASGFTFSTYAMSWVRQAPGKGLEWVSAISGSGGSTLYADSVKGRFTISRDNSKNTLYLQMNSLRAEDTAVYYCARGGSATWAFDLWGQGTLVTVSS
VL: QSVLTQPPSASGTPGQRVTISCSGSSSNIGSNYVYWYQQLPGTAPKLLIYRNNQRPSGVPDRFSGSKSGTSASLAISGLRSEDEADYYCGTWDSSLSGVVFGGGTKLTVL
B6: #6 항체 (B7-H3 항체) (antibody, V domains shown)
VH: EVQLLESGGGLVQPGGSLRLSCAASGFTFSTYAISWVRQAPGKGLEWVSSIYYSGYTHYNPSLESRFTISRDNSKNTLYLQMNSLRAEDTAVYYCARGYSGWMDVWGQGTLVTVSS
VL: QSVLTQPPSASGTPGQRVTISCGGNNIGSKSVHWYQQLPGTAPKLLIYDNNKRPSGVPNRFSGSKSGTSASLAISGLRSEDEADYYCAAWDDSLNVPVFGGGTKLTVL
B7: #7 항체 (B7-H3 항체) (antibody, V domains shown)
VH: EVQLLESGGGLVQPGGSLRLSCAASGFTFSNFWIGWVRQAPGKGLEWVSWINPPGSITSYADSVKGRFTISRDNSKDTLYLQMNSLRAEDTAVYYCAREVGDVLDYWGQGTLVTVSS
VL: QSVLTQPPSASGTPGQRVTISCTGTSSDIGRYNYVSWYQQLPGTAPKLLIYRNTQRPSGVPDRFSGSKSGTSASLAISGLRSEDEADYYCGTWDSSLNAYVFGGGTKLTVL
B8: #8 항체 (B7-H3 항체) (antibody, V domains shown)
VH: EVQLLESGGGLVQPGSSLRLSCAASGFTFSSYWISWVRQAPGKGLEWVSEISPSGNTNYNPSLKSRFTISRDNSKNTLYLQMNSLRAEDTAVYYCAREVGDLLDYWGQGTLVTVSS
VL: QSVLTQPPSASGTPGQRVTISCSGSNIGNNYVSWYQQLPGTAPKLLIYQDSKRPSGVPDRFSGSKSGTSASLAISGLRSEDEADYYCLVWDRSSDHFVFGGGTKLTVL
B9: #9 항체 (B7-H3 항체) (antibody, V domains shown)
VH: EVQLLESGGGLVQPGGSLRLSCAASGFTFSSYAMNWVRQAPGKGLEWVSTISGSGGQTYYADSVKGRFTISRDNSKNTLYLQMNSLRAEDTAVYYCARWRSIWAFDYWGQGTLVTVSS
VL: B6 VL with G23S, G24D, N59D, A88G, A89T, N95S, V96G

Target: T1, Recombinant Human B7-H3 Fc chimera Protein (Rndsystem, Cat# 1027-B3-100) (human) (UniProt Q5ZPR3)
T1 sequence (looked up): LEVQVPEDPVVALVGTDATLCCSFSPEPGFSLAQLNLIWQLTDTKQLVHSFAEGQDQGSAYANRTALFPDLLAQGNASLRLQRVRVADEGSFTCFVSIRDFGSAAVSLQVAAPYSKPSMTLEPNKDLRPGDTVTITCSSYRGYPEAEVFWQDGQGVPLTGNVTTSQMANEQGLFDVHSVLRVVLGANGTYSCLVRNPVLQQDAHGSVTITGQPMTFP
Assay: ELISA, coated recombinant human B7-H3, anti-HA tag HRP detection

Binder	binding
B1	binds
B2	binds
B3	binds
B4	binds
B5	binds
B6	binds
B7	binds
B8	binds
B9	binds

Source: KR20220134462A
